Construct, isoform or probe ends are uncertain for at least one entry. Tags and fusion partners may be left off the protein sequences shown.
Target: T1, ALKBH3 Y143F (Homo sapiens) (UniProt Q96Q83)
T1 sequence (looked up, limits assumed): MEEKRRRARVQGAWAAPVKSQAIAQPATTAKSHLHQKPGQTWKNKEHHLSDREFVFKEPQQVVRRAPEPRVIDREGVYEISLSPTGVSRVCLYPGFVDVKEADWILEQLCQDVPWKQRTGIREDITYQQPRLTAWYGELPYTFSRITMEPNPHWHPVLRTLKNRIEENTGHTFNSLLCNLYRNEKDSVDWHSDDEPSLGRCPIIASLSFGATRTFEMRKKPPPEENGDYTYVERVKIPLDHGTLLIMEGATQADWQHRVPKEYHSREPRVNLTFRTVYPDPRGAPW
Test: intrinsic Trp fluorescence titration
Settings: apoprotein, 2 mM EDTA, no Fe(II)/2OG; N3-methylcytosine at position 9; Titration: 50 mM HEPES-KOH pH 7.8, 50 mM KCl, 10 mM MgCl2, 2 mM EDTA, 25 °C, 1 µM apoprotein; recombinant protein; protein details: N-terminal His-tag (pET28a); single-stranded DNA

Sequence: ACAGGATCCGGCATA [m3C]
- Kd: 3.8 µM

— article PMC10816986, “The Role of Key Amino Acids of the Human Fe(II)/2OG-Dependent Dioxygenase ALKBH3 in Structural Dynamics and Repair Activity toward Methylated DNA” (International Journal of Molecular Sciences, 2024)
